This test addresses T1, FLAG-NSY-1 (C. elegans) (UniProt Q21029).
T1 sequence: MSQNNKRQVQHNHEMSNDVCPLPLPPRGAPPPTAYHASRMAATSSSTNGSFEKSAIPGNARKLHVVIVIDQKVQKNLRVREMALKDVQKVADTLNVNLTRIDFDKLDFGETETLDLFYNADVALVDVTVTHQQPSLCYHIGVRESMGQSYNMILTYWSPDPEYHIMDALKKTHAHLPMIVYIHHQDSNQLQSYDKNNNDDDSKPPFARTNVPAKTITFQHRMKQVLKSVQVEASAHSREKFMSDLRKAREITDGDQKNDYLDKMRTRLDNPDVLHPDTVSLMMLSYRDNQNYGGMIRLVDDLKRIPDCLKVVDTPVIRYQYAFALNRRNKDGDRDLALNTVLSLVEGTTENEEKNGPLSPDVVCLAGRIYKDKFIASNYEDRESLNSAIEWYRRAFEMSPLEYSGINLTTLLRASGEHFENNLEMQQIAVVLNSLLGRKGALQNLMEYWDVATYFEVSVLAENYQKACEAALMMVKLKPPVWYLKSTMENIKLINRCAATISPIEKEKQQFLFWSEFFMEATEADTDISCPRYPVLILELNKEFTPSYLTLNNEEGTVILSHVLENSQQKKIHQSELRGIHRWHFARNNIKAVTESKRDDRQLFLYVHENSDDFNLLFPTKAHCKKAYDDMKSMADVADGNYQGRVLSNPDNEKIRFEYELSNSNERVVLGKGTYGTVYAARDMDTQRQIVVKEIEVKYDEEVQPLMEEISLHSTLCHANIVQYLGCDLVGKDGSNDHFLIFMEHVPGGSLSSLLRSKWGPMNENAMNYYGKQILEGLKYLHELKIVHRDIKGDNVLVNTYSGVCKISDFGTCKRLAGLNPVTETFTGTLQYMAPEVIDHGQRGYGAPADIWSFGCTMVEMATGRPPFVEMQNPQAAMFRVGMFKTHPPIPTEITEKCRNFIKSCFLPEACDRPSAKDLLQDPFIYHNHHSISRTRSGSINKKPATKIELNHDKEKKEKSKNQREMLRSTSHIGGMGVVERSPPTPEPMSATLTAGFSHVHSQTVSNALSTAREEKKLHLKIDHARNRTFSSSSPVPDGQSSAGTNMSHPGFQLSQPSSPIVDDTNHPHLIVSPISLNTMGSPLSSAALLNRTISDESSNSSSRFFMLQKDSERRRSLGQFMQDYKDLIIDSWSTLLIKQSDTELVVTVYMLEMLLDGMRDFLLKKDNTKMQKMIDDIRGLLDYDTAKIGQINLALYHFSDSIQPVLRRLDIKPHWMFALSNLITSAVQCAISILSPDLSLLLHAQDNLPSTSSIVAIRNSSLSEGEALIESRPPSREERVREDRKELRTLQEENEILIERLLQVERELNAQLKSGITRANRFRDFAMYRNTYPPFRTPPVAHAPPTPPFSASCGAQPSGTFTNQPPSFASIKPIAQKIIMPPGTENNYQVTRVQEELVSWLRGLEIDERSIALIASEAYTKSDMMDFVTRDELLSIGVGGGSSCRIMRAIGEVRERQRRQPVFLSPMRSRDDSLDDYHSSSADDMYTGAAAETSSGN
Kind of test: co-IP; HEK 293-T cells co-transfected with FLAG and HA tagged kinases; lysed in 0.1% NP-40 lysis buffer (50 mM Tris pH 7.5, 150 mM NaCl, 10% glycerol, 1 mM DTT); FLAG-NSY-1 immunoprecipitated with anti-FLAG (M2) and protein G agarose at 4°C; anti-HA immunoblot. (In general: A western blot detects proteins with antibodies after separation by electrophoresis.)

By UniProt entry, the sequences of proteins in these tests, tags left out.
UniProt Q23356: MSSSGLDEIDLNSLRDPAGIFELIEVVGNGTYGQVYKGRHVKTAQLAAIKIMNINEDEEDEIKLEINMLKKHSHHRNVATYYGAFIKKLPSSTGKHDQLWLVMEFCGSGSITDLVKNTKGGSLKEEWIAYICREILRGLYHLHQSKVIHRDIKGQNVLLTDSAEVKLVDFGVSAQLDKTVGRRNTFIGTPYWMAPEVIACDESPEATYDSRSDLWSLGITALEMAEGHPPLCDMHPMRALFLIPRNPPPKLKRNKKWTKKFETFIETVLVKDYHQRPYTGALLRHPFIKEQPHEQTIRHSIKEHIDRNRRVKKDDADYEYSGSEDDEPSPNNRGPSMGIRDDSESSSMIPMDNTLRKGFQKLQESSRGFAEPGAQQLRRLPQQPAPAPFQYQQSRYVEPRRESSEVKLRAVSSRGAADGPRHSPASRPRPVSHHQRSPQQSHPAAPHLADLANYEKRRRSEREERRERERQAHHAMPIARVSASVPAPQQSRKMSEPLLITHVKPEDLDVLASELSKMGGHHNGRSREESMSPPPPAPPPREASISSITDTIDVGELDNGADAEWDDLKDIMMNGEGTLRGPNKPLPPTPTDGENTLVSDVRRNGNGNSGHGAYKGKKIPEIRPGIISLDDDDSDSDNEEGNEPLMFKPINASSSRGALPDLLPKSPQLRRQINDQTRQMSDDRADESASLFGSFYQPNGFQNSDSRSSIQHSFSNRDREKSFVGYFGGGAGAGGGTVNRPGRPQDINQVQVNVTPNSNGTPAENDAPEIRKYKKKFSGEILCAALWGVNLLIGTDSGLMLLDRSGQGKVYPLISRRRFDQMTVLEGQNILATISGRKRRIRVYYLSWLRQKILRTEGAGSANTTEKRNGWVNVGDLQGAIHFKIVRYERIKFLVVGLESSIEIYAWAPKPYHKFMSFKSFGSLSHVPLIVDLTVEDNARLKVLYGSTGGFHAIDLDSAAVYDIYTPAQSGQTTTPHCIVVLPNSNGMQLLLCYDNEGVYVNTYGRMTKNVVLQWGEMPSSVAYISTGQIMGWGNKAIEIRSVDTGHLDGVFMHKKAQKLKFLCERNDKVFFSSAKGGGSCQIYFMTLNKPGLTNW

These are yes or no findings as the source states them, for the method shown. In cells and extracts the contact can be indirect. Some entries that bind do so weakly or less than the wild type. Where a sequence is shown, tags or fusion partners need not be part of it.

Consider two molecules from paper PMC5754208.

Consider “MIG-15-HA (from UniProt Q23356 1-1096) (enzyme)”, for which the binding entry is on record as “binds”.

B1: HA-JKK-1 (enzyme, UniProt G5EDT6 1-435)
chain: MENVCFQQRLRDLETRVRKWKFLKLGLTEVRLRPRDRRSTSVDQKHKECSSTSSSPQHQRPNNIGYLTSPMERKFTPLSMKPSPSRRDTEKDALEYEFLEGYKKSGTLEIDGEKQVVDPNEIHIISLLGSGSCGVVESATVRSKLMAVKTMYKNDNKENLKRILRDVRIMSMCNSPFIVTSYGYFMFDSSVKICMQIMSACCEKLLRRIYHSKLDFFPEFVAGHIVYSAISALDYLKEKHSIIHRDIKPSNILFDDSGNVKLCDFGISGFMTDSMAHSKSAGCPPYMAPERLTIETNSKYDVRSDVWSLGITVYQLVTGLYPFPLNDMEFTTLTIIANLNLPSPSLREETKRSFSPLFIEFLDLCLRKDVRERPEYRQLMKHDFYLDYDPASGSAYKFKAINGKCNQVADWFVDVIRLSKTEDELKSIPNTPCVN
With B1, the binding entry is “binds”.
